Consider one sequence from doi:10.1101/2021.08.16.456468.

Sequences of proteins named here, by UniProt entry; tags and fusion partners are left off. A change or cut given only in a name is not applied to a line headed by its entry.
UniProt P39787: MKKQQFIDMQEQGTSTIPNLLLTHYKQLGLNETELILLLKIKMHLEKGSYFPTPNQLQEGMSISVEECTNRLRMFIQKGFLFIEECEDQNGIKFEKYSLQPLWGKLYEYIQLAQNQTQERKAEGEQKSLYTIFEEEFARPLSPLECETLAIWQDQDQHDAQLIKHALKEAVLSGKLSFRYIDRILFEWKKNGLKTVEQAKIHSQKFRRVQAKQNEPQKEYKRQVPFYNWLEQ

This series addresses DnaD7A (Bacillus subtilis) (UniProt P39787). The series is described as follows: fluorescence polarization. (Fluorescence polarisation rises when a labelled molecule tumbles more slowly, as on binding a larger partner.)

For at least one entry, the source does not settle the construct or the ends of the probe. Negatives hold for the conditions tested.

In the case of “TTTTTTTTTTTTTTTTTTTTTTTTTTTTTTTTTTTTTTTT [dT40]”, the binding result is recorded as “no binding”.
